# The other results are listed elsewhere or left out.
# B1: PX14404-bvu-534-26-534 (Bacteroides vulgatus) (protein)
# chain: EDPRGKLTPENFFSTQDELNMSIYALYQKVNLSQVYTNMQLPQWQGDDITTNPGSNKQPAAEMDKFAAANNNKGVKDAWNMHYAIVKAANLIIQGASKTPTTQDEINIALGQAKFWRAYAYFTLVRLWGPLPMNLDNVNDDYTKPLSPVEEVYGHIVQDLTEAEAVLPTGYSGSPRFLNGVNVYVTRQAAKSTLAAVYMAMAGWPMNKTEYYAKAAEKAKEVIEGVNRGEYEYKLDKDYKDVYAMSNNYNNETVLGINYSPFVDWAQDSELTSCNQFESLGGWGDAWGEIRFWKEFPDGPRKDATYDPKIRLKDGTLVDWWELKEDGTPVVPEHHPMFSIFSVNWDPASKVNTSAPYDYTKPASQNMCNDHRHRIIRYSEVLLWYAEAKARTGQTDELAFKCLNDVRERAGLEPLTGLSADDLAEAAYKEHGWEVAGYWVALVTRRADQFRMNRLKDTFKERAENTAVEVADGILVKESVEYTNRTWSDNLMYLPYPDMDSQKNPNLVR
# Assays:
# Experiment in all cases: glycan array binding signal (z-score within array); higher = stronger binding
# Conditions in all cases: glycan notation: IUPAC condensed, linker removed
# [1] = target: Fuc(a1-2)[Gal(a1-4)]Gal(b1-4)GlcNAc
# Method in brief: (§1)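 Glycan array binding is given as a within-array Z-score, which can be read as non-binding when negative. The arrays, 3228 of them, came from the Consortium for Functional Glycomics database and were retained only where the protein sequence was available. Z-scores were averaged across arrays of the same protein sequence at different concentrations or buffers and across linkers.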
# [2] = target: Fuc(a1-2)[GalNAc(a1-3)]Gal
# Method in brief: as §1
# [3] = target: Fuc(a1-2)[GalNAc(a1-3)]Gal(b1-3)GalNAc(a1-3)[Fuc(a1-2)]Gal(b1-4)GlcNAc
# Method in brief: as §1
# [4] = target: Fuc(a1-2)[GalNAc(a1-3)]Gal(b1-3)GalNAc(b1-3)Gal(a1-4)Gal(b1-4)Glc
# Method in brief: as §1
# [5] = target: Fuc(a1-2)[GalNAc(a1-3)]Gal(b1-3)GlcNAc
# Method in brief: as §1
# [6] = target: Fuc(a1-2)[GalNAc(a1-3)]Gal(b1-3)GlcNAc(b1-2)Man(a1-3)[Fuc(a1-2)[GalNAc(a1-3)]Gal(b1-3)GlcNAc(b1-2)Man(a1-6)]Man(b1-4)GlcNAc(b1-4)GlcNAc
# Method in brief: as §1
# [7] = target: Fuc(a1-2)[GalNAc(a1-3)]Gal(b1-3)GlcNAc(b1-2)Man(a1-3)[Fuc(a1-2)[GalNAc(a1-3)]Gal(b1-3)GlcNAc(b1-2)Man(a1-6)]Man(b1-4)GlcNAc(b1-4)[Fuc(a1-6)]GlcNAc
# Method in brief: as §1
# [8] = target: Fuc(a1-2)[GalNAc(a1-3)]Gal(b1-3)GlcNAc(b1-3)GalNAc
# Method in brief: as §1
# [9] = target: Fuc(a1-2)[GalNAc(a1-3)]Gal(b1-3)GlcNAc(b1-6)GalNAc
# Method in brief: as §1
# [10] = target: Fuc(a1-2)[GalNAc(a1-3)]Gal(b1-4)Glc
# Method in brief: as §1
# [11] = target: Fuc(a1-2)[GalNAc(a1-3)]Gal(b1-4)GlcNAc
# Method in brief: as §1
# [12] = target: Fuc(a1-2)[GalNAc(a1-3)]Gal(b1-4)GlcNAc(b1-2)Man
# Method in brief: as §1
# [13] = target: Fuc(a1-2)[GalNAc(a1-3)]Gal(b1-4)GlcNAc(b1-2)Man(a1-3)[Fuc(a1-2)[GalNAc(a1-3)]Gal(b1-4)GlcNAc(b1-2)Man(a1-6)]Man(b1-4)GlcNAc(b1-4)GlcNAc
# Method in brief: as §1
# [14] = target: Fuc(a1-2)[GalNAc(a1-3)]Gal(b1-4)GlcNAc(b1-2)Man(a1-3)[Fuc(a1-2)[GalNAc(a1-3)]Gal(b1-4)GlcNAc(b1-2)Man(a1-6)]Man(b1-4)GlcNAc(b1-4)[Fuc(a1-6)]GlcNAc
# Method in brief: as §1
# [15] = target: Fuc(a1-2)[GalNAc(a1-3)]Gal(b1-4)GlcNAc(b1-3)Gal(b1-4)GlcNAc
# Method in brief: as §1
# [16] = target: Fuc(a1-2)[GalNAc(a1-3)]Gal(b1-4)GlcNAc(b1-3)Gal(b1-4)GlcNAc(b1-3)Gal(b1-4)GlcNAc
# Method in brief: as §1
# [17] = target: Fuc(a1-2)[GalNAc(a1-3)]Gal(b1-4)GlcNAc(b1-3)GalNAc
# Method in brief: as §1
# [18] = target: Fuc(a1-2)[GalNAc(a1-3)]Gal(b1-4)GlcNAc(b1-3)[Fuc(a1-2)[GalNAc(a1-3)]Gal(b1-4)GlcNAc(b1-6)]GalNAc
# Method in brief: as §1
# [19] = target: Fuc(a1-2)[GalNAc(a1-3)]Gal(b1-4)GlcNAc(b1-6)GalNAc
# Method in brief: as §1
# [20] = target: Fuc(a1-2)[GalNAc(a1-3)]Gal(b1-4)[Fuc(a1-3)]GlcNAc
# Method in brief: as §1
# [21] = target: Fuc(a1-2)[GalNAc(a1-3)]Gal(b1-4)[Fuc(a1-3)]GlcNAc(b1-3)GalNAc
# Method in brief: as §1
# [22] = target: Fuc(a1-2)[GalNAc(a1-4)]Gal(b1-4)GlcNAc
# Method in brief: as §1
# [23] = target: Fuc(a1-2)[GalNAc(b1-3)]Gal
# Method in brief: as §1
binder,measurement,setting,value
B1,glycan array binding signal (z-score),[1],0.074
same,glycan array binding signal (z-score),[2],-0.368
same,glycan array binding signal (z-score),[3],-0.524
same,glycan array binding signal (z-score),[4],-0.002
same,glycan array binding signal (z-score),[5],0.491
same,glycan array binding signal (z-score),[6],0.949
same,glycan array binding signal (z-score),[7],-1.04
same,glycan array binding signal (z-score),[8],-0.573
same,glycan array binding signal (z-score),[9],-0.199
same,glycan array binding signal (z-score),[10],-0.975
same,glycan array binding signal (z-score),[11],-1.17
same,glycan array binding signal (z-score),[12],-1.15
same,glycan array binding signal (z-score),[13],0.042
same,glycan array binding signal (z-score),[14],1.18
same,glycan array binding signal (z-score),[15],-1.36
same,glycan array binding signal (z-score),[16],-0.561
same,glycan array binding signal (z-score),[17],0.719
same,glycan array binding signal (z-score),[18],0.772
same,glycan array binding signal (z-score),[19],-0.997
same,glycan array binding signal (z-score),[20],-0.077
same,glycan array binding signal (z-score),[21],1.51
same,glycan array binding signal (z-score),[22],-0.598
same,glycan array binding signal (z-score),[23],0.477

# A second format for some results above.
binder | measurement | setting | value
B1 | glycan array binding signal (z-score) | [6] | 0.949
same | glycan array binding signal (z-score) | [7] | -1.04

# Reference: the supplement of paper PMC8728848
